Values quoted from earlier work in US8440442B2, “Method of assaying 5-FU” (Myriad Genetics, Inc, priority 2009, dated 2013).

Settings: patients, 5-FU infusion; cited from earlier work

## O=c1[nH]cc(F)c(=O)[nH]1 [5-FU, 5-fluorouracil]
  average t1/2: ~13 min
